One data set can be described thus: general procedure: solution-phase peptide synthesis; HATU/DIPEA; HBTU/DIEA. The conditions noted are these: conjugation step.
On to “3-((3-(2-((3-((3-(2,5-dioxo-2,5-dihydro-1H-pyrrol-1-yl)propanamido)methyl)-1-(2,5,8,11,14,17,20,23,26,29,32,35-dodecaoxaoctatriacontan-38-oyl)azetidin-3-yl)oxy)acetamido)propanamido)methyl)-4-(((2S,3R,4S,5R,6R)-3,4,5-trihydroxy-6-(hydroxymethyl)tetrahydro-2H-pyran-2-yl)oxy)benzyl ((S)-1-(((S)-1-(((3R,4S,5S)-1-((S)-2-((1R,2R)-3-(((1S,2R)-1-hydroxy-1-phenylpropan-2-yl)amino)-1-methoxy-2-methyl-3-oxopropyl)pyrrolidin-1-yl)-3-methoxy-5-methyl-1-oxoheptan-4-yl)(methyl)amino)-3-methyl-1-oxobutan-2-yl)amino)-3-methyl-1-oxobutan-2-yl)(methyl)carbamate”, for which the conjugation yield turned out to be 30%.

As to “(2S,3S,4S,5R,6S)-6-(4-((5S,8S,11S,12R)-11-((S)-sec-butyl)-12-(2-((S)-2-((1R,2R)-3-(((1S,2R)-1-hydroxy-1-phenylpropan-2-yl)amino)-1-methoxy-2-methyl-3-oxopropyl)pyrrolidin-1-yl)-2-oxoethyl)-5,8-diisopropyl-4,10-dimethyl-3,6,9-trioxo-2,13-dioxa-4,7,10-triazatetradecyl)-2-((3-(2-((3-((3-(2,5-dioxo-2,5-dihydro-1H-pyrrol-1-yl)propanamido)methyl)-1-(2,5,8,11,14,17,20,23,26,29,32,35-dodecaoxaoctatriacontan-38-oyl)azetidin-3-yl)oxy)acetamido)propanamido)methyl)phenoxy)-3,4,5-trihydroxytetrahydro-2H-pyran-2-carboxylic acid”, the conjugation yield is 20%.

The substance “(2S,3S,4S,5R,6S)-6-(4-((5S,8S,11S,12R)-11-((S)-sec-butyl)-12-(2-((S)-2-((1R,2R)-3-(((1S,2R)-1-hydroxy-1-phenylpropan-2-yl)amino)-1-methoxy-2-methyl-3-oxopropyl)pyrrolidin-1-yl)-2-oxoethyl)-5,8-diisopropyl-4,10-dimethyl-3,6,9-trioxo-2,13-dioxa-4,7,10-triazatetradecyl)-2-(3-(2-((3-((3-(2,5-dioxo-2,5-dihydro-1H-pyrrol-1-yl)propanamido)methyl)-1-(2,5,8,11,14,17,20,23,26,29,32,35-dodecaoxaoctatriacontan-38-oyl)azetidin-3-yl)oxy)acetamido)propanamido)phenoxy)-3,4,5-trihydroxytetrahydro-2H-pyran-2-carboxylic acid” had a conjugation yield of 50.5%.

The same data set, now with this note: late stage modification step.
As to “(2S,3S,4S,5R,6S)-6-(4-((5S,8S,11S,12R)-11-((S)-sec-butyl)-12-(2-((S)-2-((1R,2R)-3-(((1S,2R)-1-hydroxy-1-phenylpropan-2-yl)amino)-1-methoxy-2-methyl-3-oxopropyl)pyrrolidin-1-yl)-2-oxoethyl)-5,8-diisopropyl-4,10-dimethyl-3,6,9-trioxo-2,13-dioxa-4,7,10-triazatetradecyl)-2-((S)-44-(3-(2,5-dioxo-2,5-dihydro-1H-pyrrol-1-yl)propanamido)-38,45,49-trioxo-2,5,8,11,14,17,20,23,26,29,32,35-dodecaoxa-39,46,50-triazahenpentacontan-51-yl)phenoxy)-3,4,5-trihydroxytetrahydro-2H-pyran-2-carboxylic acid”, the step yield was 25%.

“(2S,3S,4S,5R,6S)-6-(4-((5S,8S,11S,12R)-11-((S)-sec-butyl)-12-(2-((S)-2-((1R,2R)-3-(((1S,2R)-1-hydroxy-1-phenylpropan-2-yl)amino)-1-methoxy-2-methyl-3-oxopropyl)pyrrolidin-1-yl)-2-oxoethyl)-5,8-diisopropyl-4,10-dimethyl-3,6,9-trioxo-2,13-dioxa-4,7,10-triazatetradecyl)-2-((3-(2-((3-((3-(2,5-dioxo-2,5-dihydro-1H-pyrrol-1-yl)propanamido)methyl)-1-(2,5,8,11,14,17,20,23,26,29,32,35-dodecaoxaoctatriacontan-38-oyl)azetidin-3-yl)oxy)acetamido)propanamido)methyl)phenoxy)-3,4,5-trihydroxytetrahydro-2H-pyran-2-carboxylic acid” returned a step yield of 35.7%.

Take “(2S,3S,4S,5R,6S)-6-(2-((3-(2-((3-((2-bromoacetamido)methyl)-1-(2,5,8,11,14,17,20,23,26,29,32,35-dodecaoxaoctatriacontan-38-oyl)azetidin-3-yl)oxy)acetamido)propanamido)methyl)-4-((5S,8S,11S,12R)-11-((S)-sec-butyl)-12-(2-((S)-2-((1R,2R)-3-(((1S,2R)-1-hydroxy-1-phenylpropan-2-yl)amino)-1-methoxy-2-methyl-3-oxopropyl)pyrrolidin-1-yl)-2-oxoethyl)-5,8-diisopropyl-4,10-dimethyl-3,6,9-trioxo-2,13-dioxa-4,7,10-triazatetradecyl)phenoxy)-3,4,5-trihydroxytetrahydro-2H-pyran-2-carboxylic acid”: the step yield came to 80%.

In turn, “(2S,3S,4S,5R,6S)-6-(4-((5S,8S,11S,12R)-11-((S)-sec-butyl)-12-(2-((S)-2-((1R,2R)-3-(((1S,2R)-1-hydroxy-1-phenylpropan-2-yl)amino)-1-methoxy-2-methyl-3-oxopropyl)pyrrolidin-1-yl)-2-oxoethyl)-5,8-diisopropyl-4,10-dimethyl-3,6,9-trioxo-2,13-dioxa-4,7,10-triazatetradecyl)-2-((S)-44-(3-(2,5-dioxo-2,5-dihydro-1H-pyrrol-1-yl)propanamido)-38,45-dioxo-2,5,8,11,14,17,20,23,26,29,32,35-dodecaoxa-39,46-diazanonatetracontan-49-amido)phenoxy)-3,4,5-trihydroxytetrahydro-2H-pyran-2-carboxylic acid” gave a step yield of 11%.

In turn, “(2S,3S,4S,5R,6S)-6-(4-((5S,8S,11S,12R)-11-((S)-sec-butyl)-12-(2-((S)-2-((1R,2R)-3-(((1S,2R)-1-hydroxy-1-phenylpropan-2-yl)amino)-1-methoxy-2-methyl-3-oxopropyl)pyrrolidin-1-yl)-2-oxoethyl)-5,8-diisopropyl-4,10-dimethyl-3,6,9-trioxo-2,13-dioxa-4,7,10-triazatetradecyl)-2-((2-((3-((3-(2,5-dioxo-2,5-dihydro-1H-pyrrol-1-yl)propanamido)methyl)-1-(2,5,8,11,14,17,20,23,26,29,32,35-dodecaoxaoctatriacontan-38-oyl)azetidin-3-yl)oxy)acetamido)methyl)phenoxy)-3,4,5-trihydroxytetrahydro-2H-pyran-2-carboxylic acid” returned a step yield of 65%.

The values are drawn from patent US20250057969A1 (priority 2023, published 2025).
